Measurements reported in paper PMC6614809.
Results are given in words; binding and its absence hold for the method and conditions named. Some results given as binding are weak or reduced against the parent protein; the word gives no strength. Sequences can lack the tags named with a protein.

Legend:
[1] = biological target: T1, Full-length Top2, yeast two-hybrid fusion (budding yeast (S. cerevisiae)) (UniProt P06786); assay: two-hybrid; Gal4 activator domain (pOAD) and Gal4 binding domain (pOBD) plasmids in yeast; growth on -LWH plates with 5 mM 3-Amino-1,2,4-triazole, control -LW plates
T1 sequence: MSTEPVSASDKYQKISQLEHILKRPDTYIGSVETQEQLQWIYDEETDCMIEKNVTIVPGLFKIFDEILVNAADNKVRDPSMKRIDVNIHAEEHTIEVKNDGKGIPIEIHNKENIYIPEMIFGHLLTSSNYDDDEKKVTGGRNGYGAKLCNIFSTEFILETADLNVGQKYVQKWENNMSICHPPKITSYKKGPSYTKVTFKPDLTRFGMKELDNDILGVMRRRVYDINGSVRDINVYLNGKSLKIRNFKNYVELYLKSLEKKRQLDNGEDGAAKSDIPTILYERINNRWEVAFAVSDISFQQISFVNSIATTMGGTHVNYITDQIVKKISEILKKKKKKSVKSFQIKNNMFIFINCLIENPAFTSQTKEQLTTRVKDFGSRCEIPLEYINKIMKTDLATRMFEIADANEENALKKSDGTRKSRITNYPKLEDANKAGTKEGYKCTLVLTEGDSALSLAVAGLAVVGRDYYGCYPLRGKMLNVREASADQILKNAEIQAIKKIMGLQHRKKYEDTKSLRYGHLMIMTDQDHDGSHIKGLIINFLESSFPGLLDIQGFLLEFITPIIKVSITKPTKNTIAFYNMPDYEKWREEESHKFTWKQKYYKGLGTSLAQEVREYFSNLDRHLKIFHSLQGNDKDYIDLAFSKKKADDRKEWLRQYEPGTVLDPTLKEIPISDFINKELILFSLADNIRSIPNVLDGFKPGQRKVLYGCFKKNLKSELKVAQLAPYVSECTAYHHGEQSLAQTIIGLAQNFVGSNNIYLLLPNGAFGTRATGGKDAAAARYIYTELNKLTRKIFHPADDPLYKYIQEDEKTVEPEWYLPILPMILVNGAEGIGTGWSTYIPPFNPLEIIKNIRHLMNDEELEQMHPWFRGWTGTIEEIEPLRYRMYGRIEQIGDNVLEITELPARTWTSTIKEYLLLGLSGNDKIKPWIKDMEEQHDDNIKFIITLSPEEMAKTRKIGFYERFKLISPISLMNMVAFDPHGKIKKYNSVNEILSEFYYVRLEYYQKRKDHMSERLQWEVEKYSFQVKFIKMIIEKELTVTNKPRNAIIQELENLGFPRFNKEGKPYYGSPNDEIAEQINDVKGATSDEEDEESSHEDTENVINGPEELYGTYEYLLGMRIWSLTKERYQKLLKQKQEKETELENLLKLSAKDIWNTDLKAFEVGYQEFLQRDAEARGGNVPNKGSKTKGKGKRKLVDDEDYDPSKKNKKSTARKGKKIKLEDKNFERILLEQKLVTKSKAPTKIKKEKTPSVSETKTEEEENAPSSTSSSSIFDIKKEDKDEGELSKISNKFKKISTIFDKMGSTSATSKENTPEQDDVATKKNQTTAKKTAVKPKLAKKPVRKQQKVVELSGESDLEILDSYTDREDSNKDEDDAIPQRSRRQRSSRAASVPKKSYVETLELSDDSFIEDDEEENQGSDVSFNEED

[2] = biological target: SUMO, yeast two-hybrid fusion [SUMO: Q12306]; assay: two-hybrid; Y2H assay with SUMO (Supplementary Figure S3A); conditions not given

B1: Uls1 350-655 (HFP133), yeast two-hybrid fusion (domain or fragment, UniProt Q08562 350-655)
chain: PSKNMDHTTHNSHDSEQKNSSIIILSDEDESGAGINDIESPLKVSEPNTADALRSSVPEVISLLDLPNIDLNNSVIKEASGSNSIPTSETDAQSSSSSVLQGTIMTEQATQSSQHECNSSLDTLKKNHQKLLKDLNSRESELRNALSCCKTNSEILRRKLSRREKEVSDAEKHWQLLLTSMARGGRTISSTQQILVDEAENQLNKLKEKRQLTKSKLDSINLKMYNYNEQWKSFVHSKNINLQKSLAALERSARDSKASATVNKRNECLAEKEKLDQMLKEGTLSFSTYKQLTGEIQQKLNDLKLG
binding [1]: binds | binding [2]: binds

B2: Uls1 fragment 1-350 (HFP193), yeast two-hybrid fusion (domain or fragment, UniProt Q08562 1-350)
chain: MAAVPTIDLTLADSDNEDIFHSFSSSTSVDKIDIRKENGKLRMAGLEVAQSNDDAARQAFHVFKTNISNNETFDTILSKSKTITDSTFNNEKSSNEVKQQQVLKEETMGSSNDEKKTQESSPSAEMIKLFYENDDVPLSDSFKQKEEGKRINQDEQVKENICGISSSYVSKDYDGVEDDFEPNTCQDSNLDFQEEKLNLNNKPSQQQFSDPETKDNSLKSENKDQIKGVTTTSYRDLPIESSAFQDSETQNNSKNTIPNIVNEKRTPALPSNLSSVESSLKNETAKVEGKTTVRLPGLQNNVALLEQEQSELFKHFSEQPVDISDFGRKIKRKHSGDFADNKILKRPILP
binding [1]: no binding

B3: Uls1 fragment 655-1619 (HFP134), yeast two-hybrid fusion (domain or fragment, UniProt Q08562 655-1619)
chain: GDQRTTDINSVLPIVRQPLAKRDLFIKSIDTAKDLLAKNTSRTEMTKRILYRHLDNLVSYKNFFEDGRSLIDINRRHVAHESAQILFTNGVKMPIVFETLQDYGIKFSNPAIVNPDRRAQYFKSIEVARDLISKSTRSEDAKRKITRFLNIIEEFRKDIDTGFPPTPLKREGVGKAVVGLRQQGLKMDRLYENLRRYKIPITSEELLQQSYLFPVNADQRPPSNWNIVENTEDTSSTANDLSMQDEFHISNMHAAEDQEQIRALLENVKQSESIIDGEALTPEDMTVNLLKHQRLGLHWLLQVENSAKKGGLLADDMGLGKTIQAIALMLANRSEESKCKTNLIVAPVSVLRVWKGELETKVKKRAKFTTFIFGGSGNGKVKHWRDLARYDAVLVSYQTLANEFKKHWPKKLDGEQNQLPAVPHIQALNRLKTSNEYYSPFFCNDSTFYRILLDEGQNIKNKNTRASKACCTINGMYRWVLSGTPIQNSMDELYSLIRFLRIPPYHKEQRFKLDIGRFFQRNKQYQYDNEDRKNALRKVRVLLNAIMLRRSKADKIDGKPLLELPPKIVEVDESRLKGEELKFYTALESKNQALAKKLLNNSTRGSYSSVLTLLLRLRQACCHSELVVMGEKKAEGTKVANGKSFEDDWLRLYYKITHMSGEAQAQVITSMNSMTCFWCMEQLEPEAMSVLTGCGHLICDTCIEPFIEESSMLPQAKKTKGGAFAIPCKDCQRLTNEKDIVSHKLYDQVINQGFTEEDLHAEYLSEMEKQKIQQKNVYVPNFESLEPSTKIEQCIQVIQRVFDESATEKIIIFSQFTTFFEILEHFLKNKLNFPYLKYIGSMNAQRRSDVINEFYRDPEKRILLISMKAGNSGLTLTCANHVVIVDPFWNPYVEEQAQDRCYRISQTKKVQVHKLFIKDSVEDRISELQKRKKEMVDSAMDPGKIKEVNSLGRRELGFLFGLNAL
binding [1]: no binding
